Literature values in patent US10407430B2, “Janus kinase 1 selective inhibitor and pharmaceutical use thereof” (YANG JI CHEMICAL CO., LTD., priority 2015, dated 2019).
Counter-ions that a name gives are not always drawn.

Details: oral administration, 10 mg/kg, comparative drug (EMA); cited from earlier work

## CC1CCN(C(=O)CC#N)CC1N(C)c1ncnc2[nH]ccc12 (stereo not shown) [tofacitinib citrate, 3-{4-methyl-3-[methyl-(7H-pyrrolo[2,3-d]pyrimidine-4-yl)-amino]-piperidine-1-yl}-3-oxo-propionitrile]
  Tmax: 18.6 min
